For at least one compound, name, drawing or mass did not settle the structure.
Test system: dwarf sunflower (Helianthus annuus L.) plants
Experiment: Stomata conductance and transpiration in greenhouse-grown plants
Type: in vivo
Settings: greenhouse and controlled growth chamber experiments
Source text: In the following example, a treatment group of dwarf sunflower (Helianthus annuus L.) plants is sprayed once each evening with an aqueous “treatment solution” of 10 ppm sodium hydrosulfide (NaHS) in distilled water, buffered with phosphate, to a pH of 7.4. The control group of plants is sprayed once each evening with an equivalent amount of “control solution” consisting of distilled water buffered with phosphate to a pH of 7.4. The treatment and control groups each include seven plants. The dwarf sunflower plants are grown from seed in 20-cm diameter plastic pots. Each pot contains one plant growing in a peat, sand mixture. […]
Stomata conductance is measured with a steady state porometer (LiCor model LI-1600, LiCor Inc., Lincoln, Nebr.). Measurements are made on the abaxial leaf surfaces where the majority of stomata are located and are recorded after the treated group and the control group are sprayed once per evening for one week.
The transpiration rate is determined by calculating the vapor pressure at the evaporating surface (leaf) and the air vapor pressure. The saturated vapor pressure of the leaf is calculated by measuring leaf temperature. Leaf temperature is measured using an external thermocouple as well as the LICor porometer. […] Relative humidity is determined using a sling psychrometer. […] Averages for 7 plants of each group are calculated and plotted.

SMILES: S [hydrogen sulfide]
- stomata conductance and transpiration: significant effect in reducing stomata conductance and transpiration

From US9609810B2, “Methods for modulating photosynthetic activity” (priority 2012, dated 2017)
